In patent US20200306301A1:
Results are given in words; binding and its absence hold for the method and conditions named. Some entries that bind do so weakly or less than the wild type. For some assays here: Sequences can lack the tags named with a protein. Each block holds one binder with its values, some of them ahead of it.

Protein sequences, listed by entry. Tags and fused reporters are not part of them. Residues count along the entry.
UniProt P08575, residues 26-1306: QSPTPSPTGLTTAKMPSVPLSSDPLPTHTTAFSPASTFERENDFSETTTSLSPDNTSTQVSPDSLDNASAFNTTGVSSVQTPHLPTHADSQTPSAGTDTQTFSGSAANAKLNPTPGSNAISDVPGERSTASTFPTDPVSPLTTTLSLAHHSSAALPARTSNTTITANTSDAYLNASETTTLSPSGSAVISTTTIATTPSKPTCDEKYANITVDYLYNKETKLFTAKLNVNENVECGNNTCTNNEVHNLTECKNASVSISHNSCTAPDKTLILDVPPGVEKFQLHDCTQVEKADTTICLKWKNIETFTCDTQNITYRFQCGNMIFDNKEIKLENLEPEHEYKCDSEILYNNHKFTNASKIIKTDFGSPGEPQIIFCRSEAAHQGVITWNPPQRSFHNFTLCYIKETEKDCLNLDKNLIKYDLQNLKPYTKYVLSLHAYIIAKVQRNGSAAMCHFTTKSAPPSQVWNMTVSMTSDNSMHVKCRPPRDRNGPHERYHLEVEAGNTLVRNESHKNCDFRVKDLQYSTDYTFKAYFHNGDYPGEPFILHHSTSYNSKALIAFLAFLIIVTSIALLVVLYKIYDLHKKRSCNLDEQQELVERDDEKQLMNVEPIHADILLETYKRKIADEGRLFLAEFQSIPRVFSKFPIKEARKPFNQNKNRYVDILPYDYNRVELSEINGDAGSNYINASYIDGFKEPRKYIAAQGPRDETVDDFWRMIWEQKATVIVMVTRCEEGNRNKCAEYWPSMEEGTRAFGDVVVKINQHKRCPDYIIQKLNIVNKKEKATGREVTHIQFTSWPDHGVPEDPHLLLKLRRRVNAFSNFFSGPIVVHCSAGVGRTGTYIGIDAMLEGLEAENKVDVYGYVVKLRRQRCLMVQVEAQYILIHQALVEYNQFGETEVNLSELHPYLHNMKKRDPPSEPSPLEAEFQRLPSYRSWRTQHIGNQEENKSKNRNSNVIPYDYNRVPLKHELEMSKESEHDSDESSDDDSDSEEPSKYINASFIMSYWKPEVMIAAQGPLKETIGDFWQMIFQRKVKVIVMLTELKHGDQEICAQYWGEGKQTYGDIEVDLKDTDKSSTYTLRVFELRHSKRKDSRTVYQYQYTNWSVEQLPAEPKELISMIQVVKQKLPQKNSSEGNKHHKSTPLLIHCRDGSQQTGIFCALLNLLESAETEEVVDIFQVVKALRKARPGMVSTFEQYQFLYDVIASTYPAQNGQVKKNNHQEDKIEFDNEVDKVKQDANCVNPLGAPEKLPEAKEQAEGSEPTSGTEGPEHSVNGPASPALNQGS

Columns and labels:
[1] = biological target: CD45 (human) expressed on the surface of activated primary human T cells (human) (UniProt P08575); experiment: flow cytometry titration on activated human CD8 T cells
[2] = biological target: CD45 (human) expressed on the surface of activated primary human T cells (human) (UniProt P08575); experiment: flow cytometry on T cells, detection through the hexahistidine tag

binding [1]: binds
B1: hBC8(23) humanized BC8 IgG anti-CD45 antibody (antibody, V domains shown)
VH: EVQLVESGGGLVQPGGSLRLSCAASGFDFSRYWMSWVRQAPGKGLEWIGEINPTSSTINFADSVKGRFTISRDNAKNSLYLQMNSVRDEDTAVYYCARGNYYRYGDAMDYWGQGTLVTVSS
VL: EIVLTQSPATLSLSLGERATISCRASKSVSTSGYSYLHWYQQKPGQAPKLLIYLASNRATGVPARFSGSGPGTDFTLTISSLEPEDFATYYCQHSRELPFTFGQGTKLEIK

binding [2]: binds
B2: BC8scFv (monomeric, hexahistidine tag) (scFv, V domains shown, not shown: small tags and cut ends)
VH: QVQLVESGGGLVQPGGSLKLSCAASGFDFSRYWMSWVRQAPGKGLEWIGEINPTSSTINFTPSLKDKVFISRDNAKNTLYLQMSKVRSEDTALYYCARGNYYRYGDAMDYWGQGTSVTVSS
VL: DIVLTQSPASLAVSLGQRATISCRASKSVSTSGYSYLHWYQQKPGQPPKLLIYLASNLESGVPARFSGSGSGTDFTLNIHPVEEEDAATYYCQHSRELPFTFGSGTKLEIK
